Measured values taken from publication PMC7862700.
This is a selection; strong and weak results do not stand in their true shares. For some of these results: At the low end of the ranking, values are background and their order means little. This is one part of the list. For some of these results: The exact form of the protein is not confirmed.

Tests used:
Experiment in all cases: DAPPL (digital affinity profiling via proximity ligation, sequencing)
Conditions in all cases: 10 mM Tris-HCl pH 7.5, 50 mM NaCl, 1 mM DTT, 4% glycerol, room temperature, 30 min; GST-TFs on glutathione beads, 16-mer random dsDNA library, 0.1% …; high values mean tight binding; double strand, one strand shown; scale: fold enrichment (6-mer frequency, TF over GST control)
[1] = target: T1, GABPA (UniProt Q06546)
T1 sequence: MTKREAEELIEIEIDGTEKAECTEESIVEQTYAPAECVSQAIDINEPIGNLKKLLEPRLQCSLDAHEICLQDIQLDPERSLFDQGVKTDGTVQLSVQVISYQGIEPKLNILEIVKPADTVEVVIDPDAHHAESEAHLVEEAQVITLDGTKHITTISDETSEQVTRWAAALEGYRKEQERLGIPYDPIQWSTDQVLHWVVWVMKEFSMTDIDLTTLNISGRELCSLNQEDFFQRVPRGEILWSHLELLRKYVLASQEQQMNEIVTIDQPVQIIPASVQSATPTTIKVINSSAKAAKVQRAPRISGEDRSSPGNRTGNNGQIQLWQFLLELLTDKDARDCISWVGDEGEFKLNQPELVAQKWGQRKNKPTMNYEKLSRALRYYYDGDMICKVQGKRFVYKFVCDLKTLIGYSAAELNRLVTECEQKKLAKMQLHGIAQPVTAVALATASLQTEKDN

[2] = target: T2, ETS1 (UniProt P14921)
T2 sequence: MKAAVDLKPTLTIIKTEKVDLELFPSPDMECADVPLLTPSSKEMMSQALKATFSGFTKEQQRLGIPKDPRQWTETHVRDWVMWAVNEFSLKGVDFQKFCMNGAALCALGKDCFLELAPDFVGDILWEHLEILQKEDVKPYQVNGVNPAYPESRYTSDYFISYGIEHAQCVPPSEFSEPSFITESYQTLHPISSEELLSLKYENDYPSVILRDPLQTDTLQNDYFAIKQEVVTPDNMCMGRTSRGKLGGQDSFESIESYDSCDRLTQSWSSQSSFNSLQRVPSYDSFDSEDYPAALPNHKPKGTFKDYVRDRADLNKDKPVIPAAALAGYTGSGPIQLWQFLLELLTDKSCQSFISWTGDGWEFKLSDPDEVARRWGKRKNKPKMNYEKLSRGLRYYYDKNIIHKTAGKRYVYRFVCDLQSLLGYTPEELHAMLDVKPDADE

[3] = target: T3, SPDEF (UniProt O95238)
T3 sequence: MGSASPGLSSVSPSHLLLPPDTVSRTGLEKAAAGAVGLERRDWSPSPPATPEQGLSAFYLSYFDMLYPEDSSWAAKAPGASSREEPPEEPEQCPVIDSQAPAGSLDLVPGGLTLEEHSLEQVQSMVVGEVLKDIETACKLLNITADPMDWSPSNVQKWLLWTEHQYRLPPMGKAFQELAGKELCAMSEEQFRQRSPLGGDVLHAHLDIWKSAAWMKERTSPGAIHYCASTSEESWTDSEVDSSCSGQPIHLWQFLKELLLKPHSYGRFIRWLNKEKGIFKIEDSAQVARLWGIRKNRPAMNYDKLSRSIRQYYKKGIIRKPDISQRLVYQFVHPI

| Sequence | binding signal [1] | binding signal [2] | binding signal [3] |
| --- | --- | --- | --- |
| GACCCA | 0.943 | 0.884 | 0.902 |
| GCCAAC | 0.872 | 0.955 | 0.835 |
| GCAATT | 1.14 | 1.21 | 1.06 |
| AGCGGC | 0.91 | 0.956 | 0.876 |
| AGTGCC | 0.996 | 0.88 | 0.937 |
| GGTTTG | 1.24 | 1.32 | 1.06 |
| TTGGAT | 0.96 | 1.04 | 1.13 |
| AGAACT | 0.888 | 0.941 | 0.933 |
| ACAGAA | 0.997 | 0.963 | 0.959 |
| ACACCA | 0.944 | 0.965 | 0.966 |
| AGATCA | 0.935 | 0.888 | 0.914 |
| TCCGTT | 1.42 | 1.55 | 1.74 |
| GCCGTC | 0.959 | 0.996 | 1.03 |
| GACACT | 0.978 | 0.958 | 0.951 |
| CCAACG | 1.09 | 1.1 | 1.13 |
| GACATG | 0.989 | 0.777 | 0.957 |
| AGACTC | 0.88 | 0.952 | 0.873 |
| TCCAGT | 0.67 | 0.665 | 0.62 |
| GTAGCG | 0.951 | 0.932 | 0.889 |
| GGCAGC | 0.879 | 0.85 | 0.916 |
| CTGTGT | 0.796 | 0.899 | 0.847 |
| CCGAAC | 1.29 | 1.33 | 1.28 |
| GTATCG | 0.911 | 0.919 | 0.973 |
| CTAGTA | 1.08 | 1.16 | 1.11 |

| Sequence | binding signal [1] | binding signal [2] | binding signal [3] |
| --- | --- | --- | --- |
| CCAAGA | 0.977 | 0.88 | 0.927 |
| GACGTT | 0.915 | 0.9 | 0.937 |
| CTAGAA | 1.05 | 0.989 | 1.01 |
| GTGCCC | 1.01 | 0.896 | 0.971 |
| TGGATT | 0.966 | 0.918 | 0.909 |
| GCTTGG | 1.12 | 1.1 | 1.08 |
| ATCACG | 0.984 | 1.05 | 1.07 |
| AGATCT | 0.922 | 1.02 | 0.914 |
| GGATCA | 0.798 | 0.783 | 0.93 |
| ATCCGG | 2.37 | 2.39 | 4.67 |
| GATAAC | 0.979 | 0.944 | 0.932 |
| CTGGGG | 0.796 | 0.851 | 0.828 |
| GCATCT | 1.03 | 1.03 | 0.939 |
| GATAGT | 0.889 | 0.807 | 0.779 |
| GTTGGC | 0.818 | 0.885 | 0.934 |
| AGAAAA | 1.03 | 1.02 | 0.981 |
| CTAGTG | 0.903 | 0.808 | 0.824 |
| GCGAAG | 0.914 | 0.823 | 0.785 |
| GATGGA | 0.94 | 0.944 | 0.868 |
| GAATGA | 0.991 | 0.961 | 0.879 |
| GGGATT | 0.891 | 0.861 | 0.907 |
| AGCTGA | 1.01 | 1.03 | 0.872 |
| TCGATA | 1.08 | 1.06 | 1.07 |
| AGCATG | 0.948 | 0.949 | 0.96 |

| Sequence | binding signal [1] | binding signal [2] | binding signal [3] |
| --- | --- | --- | --- |
| GTCACC | 0.934 | 0.976 | 0.9 |
| ACGGTT | 0.974 | 0.953 | 1.04 |
| CTAGGG | 0.901 | 0.871 | 0.809 |
| TAGGCA | 0.995 | 0.931 | 0.955 |
| TCATGG | 1.11 | 1.1 | 0.986 |
| ACAAGT | 0.961 | 0.934 | 0.894 |
| GTCTGG | 0.875 | 0.824 | 0.861 |
| GTCATT | 0.999 | 0.965 | 0.848 |
| TAAGAG | 0.859 | 0.911 | 0.889 |
| GGTTAA | 0.889 | 0.902 | 0.921 |
| CAAGCT | 0.98 | 0.978 | 0.93 |
| ATTAGA | 0.804 | 0.999 | 0.832 |
| TAGAAC | 1.03 | 0.988 | 0.98 |
| AGTGAC | 0.936 | 1.12 | 0.95 |
| TGTCGC | 0.975 | 0.985 | 0.915 |
| TAAGCG | 1.01 | 0.899 | 0.976 |
| AGAAGG | 0.718 | 0.731 | 0.608 |
| TTGTGT | 1.15 | 1.19 | 1.26 |
| CATTTG | 1.28 | 1.26 | 1.25 |
| CGCACC | 1.03 | 1.01 | 0.961 |
| ATAGGT | 0.973 | 1.05 | 1.05 |
| TGGCTG | 0.97 | 1.1 | 1.01 |
| ACCCGT | 0.845 | 0.922 | 0.873 |
| ACTTGC | 1.42 | 1.45 | 1.44 |

Taken from above:
Value for ACAAGT under binding signal [3]: 0.894
Value for GTTGGC under binding signal [2]: 0.885
Value for GTATCG under binding signal [1]: 0.911
Value for CTAGAA under binding signal [3]: 1.01
Value for CTGGGG under binding signal [2]: 0.851

(further entries)

| Sequence | binding signal [1] | binding signal [2] | binding signal [3] |
| --- | --- | --- | --- |
| TGAATA | 1.2 | 1.1 | 1.09 |
| CGCACA | 0.955 | 0.962 | 0.97 |
| CCTTTT | 1.46 | 1.48 | 1.55 |
| GTTACC | 1.05 | 1.08 | 1.03 |
| TCGAGA | 0.63 | 0.66 | 0.573 |
| GAATCA | 0.967 | 0.974 | 0.907 |
| CAGACT | 1.06 | 0.929 | 0.987 |
| TGCGGT | 0.932 | 0.904 | 0.889 |
| GTACAG | 0.986 | 0.971 | 0.948 |
| AGCAGA | 0.964 | 0.891 | 0.873 |
| CTCGGG | 0.909 | 0.986 | 0.955 |
| GAGAAT | 0.772 | 0.778 | 0.728 |
| TCGAGG | 0.84 | 0.849 | 0.756 |
| TTCGGG | 0.842 | 0.955 | 0.849 |
| TCAGTT | 0.957 | 1.02 | 1.04 |
| CAGAAG | 0.822 | 0.775 | 0.713 |
| GTCCCA | 1.11 | 1.14 | 0.989 |
| CGCTAA | 0.892 | 0.945 | 0.887 |
| GGATTA | 0.909 | 0.841 | 1.02 |
| AGAAAC | 0.943 | 1.02 | 0.924 |
| TTCAGA | 0.991 | 0.993 | 1.01 |
| CATAGC | 1.02 | 0.964 | 0.918 |
| TCACGG | 0.943 | 1.09 | 1.1 |
| CAGTTC | 0.956 | 1.04 | 0.98 |

| Sequence | binding signal [1] | binding signal [2] | binding signal [3] |
| --- | --- | --- | --- |
| GTAGAA | 0.865 | 0.861 | 0.901 |
| TTTAAT | 1.29 | 1.21 | 1.17 |
| GACCAA | 1.04 | 1.02 | 0.956 |
| AGCGCT | 1.04 | 1.04 | 0.933 |
| CGTTTA | 1.13 | 1.09 | 1.14 |
| ACAAGG | 0.933 | 0.897 | 0.913 |
| TCGGCT | 1.03 | 0.951 | 0.861 |
| GACCGA | 0.848 | 0.878 | 0.855 |
| GTGACT | 0.992 | 0.898 | 0.977 |
| CATATG | 1.09 | 1.03 | 0.98 |
| TAGCGT | 0.977 | 0.939 | 0.971 |
| AGCGAA | 0.915 | 0.915 | 0.861 |
| TTGAGA | 0.88 | 0.864 | 0.997 |
| CATTGG | 1 | 0.899 | 0.878 |
| ACGTCA | 0.99 | 0.959 | 0.907 |
| TGTGCG | 0.928 | 1.13 | 0.957 |
| GTTGAA | 0.831 | 0.927 | 0.93 |
| TTGGTT | 1.45 | 1.49 | 1.45 |
| TTTAGA | 0.957 | 0.999 | 0.952 |
| CGCTGG | 0.975 | 0.959 | 0.975 |
| AGGAAC | 0.94 | 1.01 | 1.05 |
| GTGCAC | 0.99 | 0.894 | 0.857 |
| CTGCGG |  | 1.1 | 0.983 |
| TGGCAC |  | 1.23 | 1.12 |
